The values that follow come from paper PMC4694866.

No constants are given. Whether binding was seen depends on the method and setting. Binding seen in cells or lysates may run through a third protein. Some entries that bind do so weakly or less than the wild type.

The target in assay [1] is T1, vitamin D receptor (human) (UniProt P11473).
T1 sequence: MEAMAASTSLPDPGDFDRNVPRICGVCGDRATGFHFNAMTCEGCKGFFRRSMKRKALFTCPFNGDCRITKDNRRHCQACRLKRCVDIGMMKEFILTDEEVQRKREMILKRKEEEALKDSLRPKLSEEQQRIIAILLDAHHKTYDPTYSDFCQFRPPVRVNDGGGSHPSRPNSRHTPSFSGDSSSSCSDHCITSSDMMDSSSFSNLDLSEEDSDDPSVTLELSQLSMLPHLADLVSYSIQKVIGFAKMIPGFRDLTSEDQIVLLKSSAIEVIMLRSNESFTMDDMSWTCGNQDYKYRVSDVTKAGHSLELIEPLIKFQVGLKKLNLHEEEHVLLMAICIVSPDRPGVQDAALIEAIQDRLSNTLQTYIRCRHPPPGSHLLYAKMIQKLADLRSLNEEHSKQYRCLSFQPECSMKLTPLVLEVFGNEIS
The assay can be described thus: co-IP; HEK293T co-transfected with AF4 and both VDR and RXR, 48 h; nuclear extracts (1 mg protein), precipitated with VDR or RXR antibody and Protein-G-Agarose at 4°C, washed three times with lysis buffer; Western blot for RXR, VDR and AF4. For orientation: In western blotting, separated proteins are transferred to a membrane and probed.

The target in assay [2] is T1, vitamin D receptor (human). Briefly: co-IP; HEK293T co-transfected with AF4 and only one receptor (VDR or RXR), 48 h; nuclear extracts (1 mg protein), precipitated with VDR or RXR antibody and Protein-G-Agarose at 4°C, washed three times with lysis buffer; Western blot for RXR, VDR and AF4.

B1: AF4 (protein, UniProt P51825-1 1-1210)
chain: MAAQSSLYNDDRNLLRIREKERRNQEAHQEKEAFPEKIPLFGEPYKTAKGDELSSRIQNMLGNYEEVKEFLSTKSHTHRLDASENRLGKPKYPLIPDKGSSIPSSSFHTSVHHQSIHTPASGPLSVGNISHNPKMAQPRTEPMPSLHAKSCGPPDSQHLTQDRLGQEGFGSSHHKKGDRRADGDHCASVTDSAPERELSPLISLPSPVPPLSPIHSNQQTLPRTQGSSKVHGSSNNSKGYCPAKSPKDLAVKVHDKETPQDSLVAPAQPPSQTFPPPSLPSKSVAMQQKPTAYVRPMDGQDQAPSESPELKPLPEDYRQQTFEKTDLKVPAKAKLTKLKMPSQSVEQTYSNEVHCVEEILKEMTHSWPPPLTAIHTPSTAEPSKFPFPTKDSQHVSSVTQNQKQYDTSSKTHSNSQQGTSSMLEDDLQLSDSEDSDSEQTPEKPPSSSAPPSAPQSLPEPVASAHSSSAESESTSDSDSSSDSESESSSSDSEENEPLETPAPEPEPPTTNKWQLDNWLTKVSQPAAPPEGPRSTEPPRRHPESKGSSDSATSQEHSESKDPPPKSSSKAPRAPPEAPHPGKRSCQKSPAQQEPPQRQTVGTKQPKKPVKASARAGSRTSLQGEREPGLLPYGSRDQTSKDKPKVKTKGRPRAAASNEPKPAVPPSSEKKKHKSSLPAPSKALSGPEPAKDNVEDRTPEHFALVPLTESQGPPHSGSGSRTSGCRQAVVVQEDSRKDRLPLPLRDTKLLSPLRDTPPPQSLMVKITLDLLSRIPQPPGKGSRQRKAEDKQPPAGKKHSSEKRSSDSSSKLAKKRKGEAERDCDNKKIRLEKEIKSQSSSSSSSHKESSKTKPSRPSSQSSKKEMLPPPPVSSSSQKPAKPALKRSRREADTCGQDPPKSASSTKSNHKDSSIPKQRRVEGKGSRSSSEHKGSSGDTANPFPVPSLPNGNSKPGKPQVKFDKQQADLHMREAKKMKQKAELMTDRVGKAFKYLEAVLSFIECGIATESESQSSKSAYSVYSETVDLIKFIMSLKSFSDATAPTQEKIFAVLCMRCQSILNMAMFRCKKDIAIKYSRTLNKHFESSSKVAQAPSPCIASTGTPSPLSPMPSPASSVGSQSSAGSVGSSGVAATISTPVTIQNMTSSYVTITSHVLTAFDLWEQAEALTRKNKEFFARLSTNVCTLALNSSLVDLVHYTRQGFQQLQELTKTP
Turning to B1, the binding result was “binds” in assay [1] and “binds weakly” in assay [2].
